In PubChem BioAssay AID504327 (National Center for Advancing Translational Sciences (NCATS), 2011):
In all, about 390,000 compounds went through this assay and about 820 (0.21%) were called active. The inconclusive results got no clear call from the source; some entries with a clear call stand among them for comparison. Calls come from the whole dose curve; as a rule, active = well fitted inhibition curve with a large enough effect; inconclusive = small, poorly fitted or top-dose-only effect, or another doubt; inactive = no such curve, though single readings can be large or run the other way. Where the call is inconclusive, the potency comes from a doubtful curve fit.

Sequences of proteins named here, by UniProt entry; tags and fusion partners are left off.
UniProt Q92830, whole entry, looked up: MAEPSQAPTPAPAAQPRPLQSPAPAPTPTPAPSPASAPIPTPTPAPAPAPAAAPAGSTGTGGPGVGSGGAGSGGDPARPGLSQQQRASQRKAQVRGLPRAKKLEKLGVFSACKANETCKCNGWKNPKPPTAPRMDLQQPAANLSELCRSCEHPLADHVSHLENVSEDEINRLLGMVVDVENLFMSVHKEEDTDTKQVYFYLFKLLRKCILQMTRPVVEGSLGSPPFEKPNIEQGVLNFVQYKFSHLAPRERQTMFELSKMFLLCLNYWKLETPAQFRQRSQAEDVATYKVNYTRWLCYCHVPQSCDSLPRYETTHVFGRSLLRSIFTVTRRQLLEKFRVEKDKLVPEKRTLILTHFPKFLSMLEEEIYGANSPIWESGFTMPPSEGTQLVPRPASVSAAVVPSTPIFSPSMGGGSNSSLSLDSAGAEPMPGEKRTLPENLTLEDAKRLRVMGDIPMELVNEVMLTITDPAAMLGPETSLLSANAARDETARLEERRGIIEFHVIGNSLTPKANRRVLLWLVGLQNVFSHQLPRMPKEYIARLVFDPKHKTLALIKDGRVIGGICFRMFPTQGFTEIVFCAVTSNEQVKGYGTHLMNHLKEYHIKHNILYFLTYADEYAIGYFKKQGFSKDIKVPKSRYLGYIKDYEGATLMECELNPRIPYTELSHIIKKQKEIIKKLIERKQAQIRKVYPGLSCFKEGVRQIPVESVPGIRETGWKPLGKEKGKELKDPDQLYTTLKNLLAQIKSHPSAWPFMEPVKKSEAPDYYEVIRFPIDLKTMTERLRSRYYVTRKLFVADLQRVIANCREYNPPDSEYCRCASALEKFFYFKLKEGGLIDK

What follows are compounds tested against Histone acetyltransferase KAT2A (Homo sapiens) (UniProt Q92830) (assay: qHTS Assay for Inhibitors of GCN5L2). Conditions: GCN5L2 HAT assay, ThioGlo1 CoA-SH fluorescence; activity change, negative = inhibition: at 58.9 µM (top of the series) unless noted.
Procedure, shortened: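 GCN5L2 (20nM final) in 50mM HEPES, 0.1mM EDTA pH 7.5, 0.01% Tween-20 was preincubated 15 min at room temperature with compound, then given ThioGlo1 (50uM), H3(1-25) peptide (75uM) and acetyl-CoA (70uM); CoA-thiol fluorescence (Ex340/Em540) was read at 0 and 20 min.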
% is set by controls: 0 for no effect and ±100 for the full control effect; potency is the fitted concentration of half-maximal effect.

| SMILES | Potency | activity change, negative = inhibition |
| --- | --- | --- |
| COc1cc2c(cc1OC)-c1cc(N3CCc4ccccc43)nc(=O)n1CC2 | inconclusive: 22.4 µM [inhibitor, single point] | – |
| O=C(CCC(=O)N1CCOc2ccccc21)NC1CCN(Cc2ccccc2)CC1 | inconclusive: 39.8 µM [inhibitor, single point] | – |
| Cc1ccc(NC(=O)C2=C(c3ccccc3)S(=O)(=O)CCS2(=O)=O)cc1 | inconclusive: 8.91 µM [inhibitor, full curve, poor fit] | – |
| COc1ccccc1CNC(=O)CCS(=O)(=O)Cc1ccc(C)cc1 | – | inactive: -7.25% |
| COc1ccc(N2Cc3cccc(C(=O)N4CCN(C(=O)c5ccco5)CC4)c3C2=O)cc1 | inconclusive: 28.2 µM [inhibitor, partial curve] | – |
| COc1cccc(C2C(C(N)=O)=C(C)Nc3nc(CCCO)nn32)c1 (stereo not given) | inconclusive: 2.24 µM [inhibitor, partial curve] | – |
| Cc1nnc(SCc2nc3sc(C(=O)O)c(C)c3c(=O)[nH]2)s1 | inconclusive: 39.8 µM [inhibitor, single point] | – |
| COc1ccc(-c2cc(=O)c3c(OC)c(OC)c(OC)cc3o2)cc1OC | inconclusive: 14.1 µM [inhibitor, partial curve] | – |
| Cc1ccc(N(CC(=O)N2CCOCC2)S(=O)(=O)c2ccccc2)cc1 | inconclusive: 25.1 µM [inhibitor, single point] | – |
| CCOC(=O)c1[nH]c(C)c(C(=O)OC(C)C(=O)Nc2ncc(Cl)cc2Cl)c1C (stereo not given) | inconclusive: 0.794 µM [inhibitor, single point] | – |
| CC(C)(CO)Cc1cc(C(C)(C)C)c(O)c(C(C)(C)C)c1 | inconclusive: 28.2 µM [inhibitor, single point] | – |
| CC1=CCC(C(=O)N/N=C/c2cccs2)C(c2ccc(F)cc2)C1 (stereo not given) | inconclusive: 0.891 µM [inhibitor, full curve, poor fit] | – |
| O=C(NCc1ccc(Cl)cc1)c1cc2cccc3c2n1CCS3 | – | inactive: -10% |
| Cc1cccc(C(=O)NNS(=O)(=O)c2ccc(F)cc2)c1 | – | inactive: -1.06% |
| Cc1ccc(Oc2cc([N+](=O)[O-])cc3c2C(=O)Nc2ccccc2O3)cc1 | inconclusive: 8.91 µM [inhibitor, single point] | – |
| Cc1ccc2nc(N/N=C\c3ccc([N+](=O)[O-])o3)nc(-c3ccccc3)c2c1 | – | inactive: -1.91% |
| O=C(NCc1ccco1)c1cccc(S(=O)(=O)N2CCN(Cc3ccccc3)CC2)c1 | inconclusive: 0.501 µM [inhibitor, single point] | – |
| O=C(Nc1cccc(C(F)(F)F)c1)c1ccc2nc(-c3ccco3)c(-c3ccco3)nc2c1 | inconclusive: 20 µM [inhibitor, partial curve] | – |
| C=CCOc1ccc(/C=C2\SC(=S)N(NS(=O)(=O)c3ccc(C)cc3)C2=O)cc1 | inconclusive: 11.2 µM [inhibitor, partial curve, poor fit] | – |
| CCn1nc(C(=O)N2CCN(Cc3ccc4c(c3)OCO4)CC2)c2ccccc2c1=O | inconclusive: 39.8 µM [inhibitor, single point] | – |
| Oc1ccc2nnc3c(Br)cnn3c2c1 | – | inactive: 1.63% |
| CCn1c(CNC(=O)c2ccco2)nnc1SCC(=O)c1ccc(F)cc1 | – | inactive: -3.85% |
| O=C(Nc1nc(-c2ccncc2)cs1)C1COc2ccccc2O1 (stereo not given) | inconclusive: 39.8 µM [inhibitor, single point] | – |
| Cc1ccc(C)c(NS(=O)(=O)c2ccc3c(c2)NC(=O)CO3)c1 | inconclusive: 0.708 µM [inhibitor, full curve, poor fit] | – |

Four entries picked at random from the list so far:

| SMILES | Potency | activity change, negative = inhibition |
| --- | --- | --- |
| COc1cc2c(cc1OC)-c1cc(N3CCc4ccccc43)nc(=O)n1CC2 | inconclusive: 22.4 µM [inhibitor, single point] | – |
| COc1ccccc1CNC(=O)CCS(=O)(=O)Cc1ccc(C)cc1 | – | inactive: -7.25% |
| CC(C)(CO)Cc1cc(C(C)(C)C)c(O)c(C(C)(C)C)c1 | inconclusive: 28.2 µM [inhibitor, single point] | – |
| Oc1ccc2nnc3c(Br)cnn3c2c1 | – | inactive: 1.63% |

Later entries.

| SMILES | Potency | activity change, negative = inhibition |
| --- | --- | --- |
| COc1ncc2nc(-c3cccs3)c(=O)n(C)c2n1 | inconclusive: 6.31 µM [inhibitor, partial curve] | – |
| O=C(O)CN1C(=O)/C(=C\c2cc([N+](=O)[O-])ccc2OCc2ccccc2Cl)SC1=S | inconclusive: 39.8 µM [inhibitor, single point] | – |
| COc1cccc(-c2nc3c(C#N)c[nH]n3c2NC2CCCCC2)c1 | – | inactive: -10.5% |
| S=c1[nH]nc(Nc2cccc(Cl)c2)s1 | active: 22.4 µM | – |
| CCOC(=O)c1c(-c2ccc(F)cc2)cn2ccccc12 | inconclusive: 0.708 µM [inhibitor, single point] | – |
| O=C(c1cc(-c2ccco2)on1)N1CCc2ccccc2C1 | inconclusive: 20 µM [inhibitor, single point] | – |
| Cc1c(NC2=CC(=O)CC(C)(C)C2)ccc([N+](=O)[O-])c1C | – | inactive: -2.77% |
| CCOC(=O)N1CCN(C(=O)CCS(=O)(=O)c2cc3c(cc2Cl)NC(=O)CO3)CC1 | – | inactive: -0.766% |
| CCC(CC)c1nnc(NC(=O)C2CC(=O)N(C3CCCC3)C2)s1 (stereo not given) | – | inactive: -3.05% |
| COc1ccc(CCn2c(C)cc(C(=O)CSc3nc(N)cc(=O)[nH]3)c2C)cc1 | inconclusive: 0.708 µM [inhibitor, single point] | – |
| Cc1ccc(N=Nc2ccc(O)c3ncccc23)cc1C | – | inactive: -7.1% |
| N#CC1=C2SCN(c3ccccc3)CN2C(=O)CC1c1ccccc1Cl (stereo not given) | active: 28.2 µM | – |
| O=C1/C(=C/c2cccs2)SC(=S)N1N1CCOCC1 | inconclusive: 10 µM [inhibitor, partial curve, poor fit] | – |
| Cc1c(C(=O)NC(=S)Nc2cccnc2)cccc1[N+](=O)[O-] | inconclusive: 3.16 µM [inhibitor, single point] | – |
| C=CCn1c(SCC(=O)c2ccc(O)c(O)c2)nnc1-c1ccc(C)cc1 | – | inactive: -25.9% |
| Cc1nc([N+](=O)[O-])c(Br)n1CC(=O)c1ccc(F)cc1 | – | inactive: -13.4% |
| N#Cc1c(SCC(=O)Nc2nncs2)sc2c(O)cc(=O)[nH]c12 | inconclusive: 12.6 µM [inhibitor, partial curve] | – |
| O=C(Nc1ccccc1)N1CCCC1 | – | inconclusive: -41.1% [inhibitor] [at 0.501 µM] |
| Cc1ccc(N2CCN(/N=C/c3cccs3)CC2)cc1 | inconclusive: 3.16 µM [inhibitor, partial curve, poor fit] | – |
| Cc1ccc2c(C)c(C(=O)NCc3ccc(S(N)(=O)=O)cc3)oc2c1C | active: 20 µM | – |
| CN(c1ccc(C(=O)NCc2ccccn2)cc1)S(=O)(=O)c1ccc(Cl)cc1 | inconclusive: 0.631 µM [inhibitor, single point] | – |
| CCOC(=O)C1=C(C)N=C2c3ccccc3C(=O)C2C1c1ccc(C)cc1 (stereo not given) | inconclusive: 39.8 µM [inhibitor, single point] | – |
| CCC(C)n1c(SCC(=O)Nc2ccc3[nH]c(=O)[nH]c3c2)nc2ccccc2c1=O (stereo not given) | – | inactive: -6.73% |
| C=CCC1(CC=C)CCCN1C(=O)c1cc(COc2cncc(Cl)c2)on1 | inconclusive: 28.2 µM [inhibitor, single point] | – |

| SMILES | Potency | activity change, negative = inhibition |
| --- | --- | --- |
| CC(=O)c1ccc(NC(=O)C2C3CCC(C3)C2C(=O)O)cc1 (stereo not given) | inconclusive: 39.8 µM [inhibitor, single point] | – |
| COc1ccc(OC)c(/C=C(\NC(=O)c2ccccc2)C(=O)N/N=C/c2ccc(C)s2)c1 | inconclusive: 39.8 µM [inhibitor, single point] | – |
| COc1cc(C2=NOC(C(=O)NCc3ccco3)C2)cc(OC)c1OC (stereo not given) | inconclusive: 28.2 µM [inhibitor, single point] | – |
| C=CCn1c(N)c(C(=O)NCC2CCCO2)c2nc3ccccc3nc21 (stereo not given) | inconclusive: 31.6 µM [inhibitor, single point] | – |
| O=C(NCC(=O)N1CCCC1)c1ccc(Br)o1 | inconclusive: 0.1 µM [inhibitor, full curve, poor fit] | – |
| CCCN(C(=O)COC(=O)CCOc1ccccc1C)c1c(N)n(Cc2ccccc2)c(=O)[nH]c1=O | inconclusive: 6.31 µM [inhibitor, single point] | – |
| NC(=O)c1nsc(C(=O)N(CC(=O)NC2CCCCC2)c2ccc(Cl)cc2)c1N | – | inactive: -5.92% |
| Cc1c(C(=O)N2CCNCC2)oc2ccccc12 | – | inactive: 0.0429% |
| S=C(c1c[nH]c2ccccc12)N1CCOCC1 | – | inactive: -6.32% |
| O=C(Nc1ccccc1)c1ccccc1C(=O)N1CCCCC1 | – | inactive: -7.32% |
| CC(=O)Cc1nsc(NC(=O)c2cc(-c3ccccc3Cl)oc2C)n1 | – | inactive: -11.7% |
| Cc1ccc(C(CC(=O)c2ccco2)SCCO)cc1 (stereo not given) | inconclusive: 39.8 µM [inhibitor, single point] | – |
| O=C(COC(=O)C1CCN(S(=O)(=O)c2cc([N+](=O)[O-])ccc2Cl)CC1)Nc1ncc(Cl)cc1Cl | inconclusive: 25.1 µM [inhibitor, single point] | – |
| COc1ccc(N2CCN(c3csc4ccc(Cl)cc4c3=O)CC2)cc1 | inconclusive: 1 µM [inhibitor, single point] | – |
| O=C(CSc1nnc(-c2ccc(Br)o2)n1Cc1ccccc1)c1ccccc1F | inconclusive: 35.5 µM [inhibitor, single point] | – |
| COc1ccc(CNCc2c(O)c(Cl)cc3c(C)c(C)c(=O)oc23)c(OC)c1 | inconclusive: 28.2 µM [inhibitor, single point] | – |
| CCNc1nc(NCC)n2c(SCC(=O)Nc3ccccc3F)nnc2n1 | inconclusive: 3.16 µM [inhibitor, single point] | – |
| COc1ccc(O)c(C(c2c(C)[nH][nH]c2=O)c2c(C)[nH][nH]c2=O)c1 | inconclusive: 28.2 µM [inhibitor, single point] | – |
| COc1ccc(OCC(=O)NC2CC(=O)N(c3cccc(OC)c3)C2)cc1 (stereo not given) | – | inactive: 1.89% |
| O=C(NCCCc1ccccc1)c1ccccc1O | – | inconclusive: -87.4% [inhibitor] [at 0.501 µM] |
| O=C(c1ccco1)N1CCC2(CC1)CN(c1ccc(-c3ccccc3)cc1)C2 | – | inactive: -13% |
| O=C1CN(C(=O)COC(=O)/C=C/c2ccc(OC(F)F)cc2)c2ccccc2N1 | inconclusive: 39.8 µM [inhibitor, single point] | – |
